We go through one molecule from publication PMC7366654.

In assay [1] the target is EGFR-NT, extracellular domain of epidermal growth factor receptor (human) (UniProt P00533). The experiment in a line: co-IP; whole cell lysates of 293 T cells added to antibody on Protein A magnetic beads, overnight at 4 °C; washes with Triton X-100 buffer (150 mM Tris, 150 mM NaCl, 0.4% NP-40, pH 7.4); immunoblot; which partner was precipitated is not told.
For assay [2], the target named is epidermal growth factor receptor, EGFR-FL (human) (UniProt P00533). Described as above.

No constants are given. Whether binding was seen depends on the method and setting. In cells and extracts the contact can be indirect. Some entries that bind do so weakly or less than the wild type.

B1: WAP four-disulfide core domain 2 (WFDC2) (protein, UniProt Q14508 31-124)
chain: EKTGVCPELQADQNCTQECVSDSECADNLKCCSAGCATFCSLPNDKEGSCPQVNINFPQLGLCRDQCQVDSQCPGQMKCCRNGCGKVSCVTPNF
For the molecule B1, the binding entry in assay [1] and in assay [2] was “binds” each time.
